Some results were stated once for a whole list of compounds, not compound by compound.
Assays:
[1] = system: diamondback moth (Plutella xylostella); experiment: Test A: control of diamondback moth on radish plant, foliar spray; format: in vivo; conditions: sprayed at 250 ppm; radish plant pre-infested with 10-15 neonate larvae; held 6 days at 25° C., 70% relative humidity; visually assessed
[2] = system: tobacco budworm (Heliothis virescens); experiment: Test B: control of tobacco budworm on cotton plant, foliar spray; format: in vivo; conditions: sprayed at 50 ppm; cotton plant pre-infested with 8 2-day-old larvae; visually rated as in Test A

With `CC1=C(NC(=O)c2cc(C(F)(F)F)nn2-c2ncccc2Cl)C(C(=O)NC(C)C)CS1` (centres unmarked) [Compound 1, 1-(3-Chloro-2-pyridinyl)-N-[4,5-dihydro-2-methyl-4-[[(1-methylethyl)amino]carbonyl]-3-thienyl]-3-(trifluoromethyl)-1H-pyrazole-5-carboxamide] the “feeding damage (excellent levels of plant protection)” value [1] was no more than 10% and the “feeding damage (very good levels of plant protection)” value [2] was no more than 20%.

Reference: patent US20040259913A1, “Diamide invertebrate pest control agents” (priority 2002, published 2004)
